Test results published in the supplement of paper PMC6078165.
± gives the standard deviation of the averaged measurements. Values are relative to the signal before dosing, not to a vehicle control; the signal also falls without drug.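 Labels refer to human fibroblasts, largely primary: uterine (C12385, HUF), lung (H6013), bone (Hs27A), adrenal (HADF), skin (WS1), plus mammary HMF and breast cancer-associated Hs343T. Cancer lines are basal-like or mesenchymal-like triple-negative breast cancer. The paper counts as hits responses shifting over 3x the replicate standard deviation. The tissue of the other fibroblasts is not given here.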

System: BT20
Experiment: relative JC-1 red fluorescence (viability) vs pre-drug, coculture with fibroblast (fraction); higher = more viable cancer cells
Procedure: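 JC-1 labelled TNBC cells cocultured 1:1 (1,500 cells each) with CellTrace Violet stained primary or stromal fibroblasts in 384-well plates in FluoroBrite medium, treated with one of 42 anticancer drugs at 0.1, 1, 10 or 100 uM. JC-1 red fluorescence (mitochondrial integrity in cancer cells only) was read by plate reader every 8 h for 72 h. Values are normalised to each well's pre-drug value. The stock of one drug was tenfold lower, so its dose labels may be too high.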

COc1cc([C@@H]2c3cc4c(cc3[C@@H](O[C@@H]3O[C@@H]5CO[C@@H](C)O[C@H]5[C@H](O)[C@H]3O)[C@H]3COC(=O)[C@H]23)OCO4)cc(OC)c1O [Etoposide]
relative JC-1 red fluorescence
Conditions | 8 h | 16 h | 24 h | 32 h | 40 h | 48 h | 56 h | 64 h | 72 h
0.1 µM, coculture fibroblast: C12385 | 0.867 ± 0.0078 | 0.798 ± 0.0087 | 0.769 ± 0.0091 | 0.717 ± 0.017 | 0.655 ± 0.02 | 0.629 ± 0.016 | 0.615 ± 0.015 | 0.6081 ± 0.0019 | 0.611 ± 0.0063
0.1 µM, coculture fibroblast: H6013 | 0.8986 ± 0.0063 | 0.823 ± 0.036 | 0.789 ± 0.089 | 0.732 ± 0.11 | 0.694 ± 0.12 | 0.68 ± 0.13 | 0.689 ± 0.14 | 0.677 ± 0.14 | 0.662 ± 0.14
0.1 µM, coculture fibroblast: H6019 | 0.855 ± 0.019 | 0.797 ± 0.02 | 0.77 ± 0.032 | 0.715 ± 0.032 | 0.667 ± 0.032 | 0.658 ± 0.037 | 0.627 ± 0.029 | 0.593 ± 0.03 | 0.582 ± 0.02
0.1 µM, coculture fibroblast: H6076 | 0.87 ± 0.14 | 0.892 ± 0.013 | 0.811 ± 0.013 | 0.773 ± 0.022 | 0.74 ± 0.052 | 0.712 ± 0.07 | 0.709 ± 0.077 | 0.712 ± 0.092 | 0.705 ± 0.1
0.1 µM, coculture fibroblast: H6231 | 0.939 ± 0.061 | 0.875 ± 0.014 | 0.801 ± 0.034 | 0.748 ± 0.046 | 0.704 ± 0.05 | 0.66 ± 0.062 | 0.643 ± 0.058 | 0.627 ± 0.068 | 0.605 ± 0.076
0.1 µM, coculture fibroblast: HADF | 0.943 ± 0.017 | 0.892 ± 0.039 | 0.856 ± 0.066 | 0.807 ± 0.075 | 0.793 ± 0.097 | 0.755 ± 0.12 | 0.748 ± 0.13 | 0.746 ± 0.15 | 0.727 ± 0.16
0.1 µM, coculture fibroblast: HCFa | 0.925 ± 0.0078 | 0.861 ± 0.034 | 0.815 ± 0.055 | 0.76 ± 0.079 | 0.723 ± 0.092 | 0.691 ± 0.1 | 0.668 ± 0.11 | 0.644 ± 0.12 | 0.61 ± 0.13
0.1 µM, coculture fibroblast: HCPF | 0.984 ± 0.019 | 0.8993 ± 0.0033 | 0.827 ± 0.021 | 0.784 ± 0.03 | 0.766 ± 0.024 | 0.732 ± 0.034 | 0.699 ± 0.04 | 0.696 ± 0.057 | 0.678 ± 0.065
0.1 µM, coculture fibroblast: HHSteC | 0.926 ± 0.016 | 0.912 ± 0.021 | 0.905 ± 0.05 | 0.836 ± 0.06 | 0.793 ± 0.071 | 0.768 ± 0.074 | 0.752 ± 0.083 | 0.742 ± 0.086 | 0.718 ± 0.087
0.1 µM, coculture fibroblast: HMF | 0.7815 ± 0.0078 | 0.896 ± 0.011 | 0.76 ± 0.015 | 0.694 ± 0.019 | 0.645 ± 0.036 | 0.605 ± 0.041 | 0.576 ± 0.042 | 0.558 ± 0.05 | 0.534 ± 0.059
0.1 µM, coculture fibroblast: HPFa | 0.92669 ± 0.00024 | 0.884 ± 0.024 | 0.878 ± 0.027 | 0.795 ± 0.03 | 0.765 ± 0.045 | 0.718 ± 0.06 | 0.705 ± 0.052 | 0.68 ± 0.072 | 0.632 ± 0.069
0.1 µM, coculture fibroblast: HUF | 0.866 ± 0.038 | 0.806 ± 0.039 | 0.792 ± 0.051 | 0.714 ± 0.069 | 0.659 ± 0.068 | 0.627 ± 0.061 | 0.621 ± 0.064 | 0.605 ± 0.056 | 0.596 ± 0.05
0.1 µM, coculture fibroblast: Hs5 | 0.973 ± 0.036 | 0.879 ± 0.049 | 0.826 ± 0.045 | 0.784 ± 0.036 | 0.749 ± 0.047 | 0.722 ± 0.062 | 0.707 ± 0.057 | 0.685 ± 0.071 | 0.671 ± 0.071
0.1 µM, coculture fibroblast: Hs27A | 0.843 ± 0.12 | 0.898 ± 0.14 | 0.9507 ± 0.0095 | 0.944 ± 0.0095 | 0.911 ± 0.011 | 0.9039 ± 0.009 | 0.894 ± 0.016 | 0.864 ± 0.048 | 0.832 ± 0.066
0.1 µM, coculture fibroblast: Hs343T | 0.959 ± 0.015 | 0.842 ± 0.028 | 0.738 ± 0.05 | 0.67 ± 0.043 | 0.632 ± 0.071 | 0.597 ± 0.1 | 0.583 ± 0.1 | 0.58 ± 0.12 | 0.562 ± 0.12
0.1 µM, coculture fibroblast: WS1 | 0.8515 ± 0.0071 | 0.775 ± 0.032 | 0.729 ± 0.037 | 0.655 ± 0.044 | 0.606 ± 0.044 | 0.567 ± 0.051 | 0.538 ± 0.053 | 0.516 ± 0.046 | 0.508 ± 0.043
1 µM, coculture fibroblast: C12385 | 0.871 ± 0.026 | 0.7837 ± 0.0035 | 0.744 ± 0.012 | 0.677 ± 0.025 | 0.631 ± 0.022 | 0.607 ± 0.029 | 0.581 ± 0.024 | 0.568 ± 0.026 | 0.565 ± 0.017
1 µM, coculture fibroblast: H6013 | 0.9113 ± 0.0013 | 0.887 ± 0.0093 | 0.885 ± 0.042 | 0.847 ± 0.049 | 0.832 ± 0.069 | 0.837 ± 0.067 | 0.863 ± 0.083 | 0.86 ± 0.076 | 0.854 ± 0.074
1 µM, coculture fibroblast: H6019 | 0.844 ± 0.003 | 0.7858 ± 0.0077 | 0.803 ± 0.015 | 0.7592 ± 0.0023 | 0.7216 ± 0.0011 | 0.712 ± 0.0077 | 0.685 ± 0.019 | 0.665 ± 0.026 | 0.658 ± 0.022
1 µM, coculture fibroblast: H6076 | 0.9534 ± 0.0072 | 0.878 ± 0.011 | 0.7923 ± 0.0062 | 0.755 ± 0.019 | 0.719 ± 0.018 | 0.684 ± 0.014 | 0.677 ± 0.0073 | 0.672 ± 0.0095 | 0.656 ± 0.018
1 µM, coculture fibroblast: H6231 | 0.912 ± 0.059 | 0.878 ± 0.03 | 0.806 ± 0.013 | 0.761 ± 0.013 | 0.716 ± 0.044 | 0.668 ± 0.065 | 0.637 ± 0.086 | 0.617 ± 0.11 | 0.613 ± 0.12
1 µM, coculture fibroblast: HADF | 0.913 ± 0.04 | 0.848 ± 0.017 | 0.819 ± 0.024 | 0.7689 ± 0.002 | 0.7518 ± 0.0049 | 0.73 ± 0.016 | 0.737 ± 0.0089 | 0.738 ± 0.012 | 0.731 ± 0.016
1 µM, coculture fibroblast: HCFa | 0.927 ± 0.036 | 0.875 ± 0.028 | 0.829 ± 0.018 | 0.764 ± 0.024 | 0.71 ± 0.025 | 0.677 ± 0.018 | 0.646 ± 0.022 | 0.623 ± 0.018 | 0.597 ± 0.024
1 µM, coculture fibroblast: HCPF | 0.956 ± 0.017 | 0.87348 ± 0.00024 | 0.795 ± 0.029 | 0.738 ± 0.018 | 0.696 ± 0.017 | 0.6567 ± 0.0015 | 0.626 ± 0.0084 | 0.6151 ± 0.006 | 0.592 ± 0.01
1 µM, coculture fibroblast: HHSteC | 0.895 ± 0.038 | 0.88 ± 0.051 | 0.884 ± 0.057 | 0.808 ± 0.05 | 0.774 ± 0.049 | 0.746 ± 0.043 | 0.731 ± 0.043 | 0.705 ± 0.047 | 0.689 ± 0.048
1 µM, coculture fibroblast: HMF | 0.937 ± 0.034 | 0.824 ± 0.025 | 0.7337 ± 0.0023 | 0.675 ± 0.016 | 0.625 ± 0.046 | 0.578 ± 0.041 | 0.547 ± 0.066 | 0.528 ± 0.095 | 0.517 ± 0.11
1 µM, coculture fibroblast: HPFa | 0.891 ± 0.018 | 0.841 ± 0.019 | 0.835 ± 0.015 | 0.759 ± 0.019 | 0.74 ± 0.025 | 0.696 ± 0.027 | 0.689 ± 0.025 | 0.671 ± 0.032 | 0.636 ± 0.037
1 µM, coculture fibroblast: HUF | 0.916 ± 0.05 | 0.864 ± 0.07 | 0.865 ± 0.11 | 0.801 ± 0.13 | 0.759 ± 0.14 | 0.736 ± 0.15 | 0.729 ± 0.16 | 0.717 ± 0.15 | 0.703 ± 0.16
1 µM, coculture fibroblast: Hs5 | 0.954 ± 0.012 | 0.873 ± 0.028 | 0.837 ± 0.078 | 0.79 ± 0.093 | 0.759 ± 0.086 | 0.724 ± 0.085 | 0.711 ± 0.092 | 0.695 ± 0.086 | 0.684 ± 0.079
1 µM, coculture fibroblast: Hs27A | 0.952 ± 0.06 | 0.909 ± 0.098 | 0.851 ± 0.13 | 0.937 ± 0.071 | 0.916 ± 0.075 | 0.922 ± 0.074 | 0.924 ± 0.078 | 0.913 ± 0.069 | 0.884 ± 0.076
1 µM, coculture fibroblast: Hs343T | 0.923 ± 0.052 | 0.808 ± 0.045 | 0.724 ± 0.019 | 0.6476 ± 0.0024 | 0.608 ± 0.037 | 0.572 ± 0.042 | 0.56 ± 0.066 | 0.556 ± 0.075 | 0.543 ± 0.085
1 µM, coculture fibroblast: WS1 | 0.8717 ± 0.003 | 0.804 ± 0.056 | 0.818 ± 0.041 | 0.764 ± 0.044 | 0.717 ± 0.04 | 0.704 ± 0.037 | 0.688 ± 0.035 | 0.69 ± 0.025 | 0.691 ± 0.012
